{"source": "patent US8664206B2", "about": "“Diastereomers of 2-methylene-19-nor-22-methyl-1α,25-dihydroxyvitamin D3” (Wisconsin Alumni Research Foundation, priority 2010, dated 2014)", "origin": "cited, not measured here", "key": {"Sprague-Dawley rats [1]": {"system": "Sprague-Dawley rats", "settings": "at 260 pM dosage; data from U.S. Pat. No. 5,843,928 and J. Med. Chem. 1998, 41, 4662; cited from earlier work"}, "HL-60 cells": {"system": "HL-60 cells", "settings": "cited from earlier work; for EC50: Data from U.S. Pat. No. 5,843,928 and J. Med. Chem. 1998, 41, 4662, read-out: HL-60 Differentiation (EC50); for HL-60 Differentiation Relative Activity: relative to the native hormone, (native hormone)/(working example), data from U.S. Pat. No. 5,843,928 and J. Med. Chem. 1998, 41, 4662"}, "Sprague-Dawley rats [2]": {"system": "Sprague-Dawley rats", "settings": "at 260 pM dosage; data from U.S. Pat. No. 5,843,928 and J. Med. Chem. 1998, 41, 4662; cited from earlier work", "remark": "listed apart in the source"}}, "note": "At least one compound was matched to its structure with a doubt left.", "data": [{"smiles": "C=C1C(O)CC(=CC=C2CCCC3(C)C2CCC3C(C)CCCC(C)(C)O)CC1O", "note": "[2MD (20R)]", "values": [{"measurement": "Net Bone Ca2+ Mobilization", "setting": "Sprague-Dawley rats [1]", "value": "4.5^7 mg/dL"}, {"measurement": "EC50", "setting": "HL-60 cells", "value": 4.2, "unit": "nM"}, {"measurement": "HL-60 Differentiation Relative Activity", "setting": "HL-60 cells", "value": 0.95}, {"measurement": "Net Intestinal Ca2+ Transport (serosal Ca2+ to mucosal Ca2+ ratio, S/M)", "setting": "Sprague-Dawley rats [2]", "value": "−0.6^7"}]}, {"smiles": "C=C1C(O)CC(=CC=C2CCCC3(C)C2CCC3C(C)CCCC(C)(C)O)CC1O", "note": "[2MD (20S)]", "values": [{"measurement": "Net Bone Ca2+ Mobilization", "setting": "Sprague-Dawley rats [1]", "value": "9.3^7 mg/dL"}, {"measurement": "EC50", "setting": "HL-60 cells", "value": 0.15, "unit": "nM"}, {"measurement": "HL-60 Differentiation Relative Activity", "setting": "HL-60 cells", "value": 27}, {"measurement": "Net Intestinal Ca2+ Transport (serosal Ca2+ to mucosal Ca2+ ratio, S/M)", "setting": "Sprague-Dawley rats [2]", "value": "−0.9^7"}]}]}
